These are yes or no findings as the source states them, for the method shown. Some binding calls cover weakened binding; strength is not graded here. Tags and fused reporters may be left off the sequences shown.
Tests used:
[1] = target: T1, human H7CR (B7-H7 counter-receptor) (human, UniProt Q96BF3 23-282); test: flow cytometry, 10 µg/ml B7-H7mIg on H7CR CHO transfectants
T1 construct: Used for H7CR on CHO.hH7CR transfectants, human T cells and tonsil tissue; also called B7-H7CR; CD28H
T1 sequence: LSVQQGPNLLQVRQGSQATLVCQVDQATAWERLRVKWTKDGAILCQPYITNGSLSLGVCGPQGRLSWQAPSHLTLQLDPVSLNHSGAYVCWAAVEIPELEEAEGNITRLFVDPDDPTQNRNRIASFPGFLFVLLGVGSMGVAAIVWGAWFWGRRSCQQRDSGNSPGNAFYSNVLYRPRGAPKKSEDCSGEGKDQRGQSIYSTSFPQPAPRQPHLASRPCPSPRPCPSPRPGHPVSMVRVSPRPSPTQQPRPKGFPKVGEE

[2] = target: T1, human H7CR (B7-H7 counter-receptor); test: flow cytometry, 10 µg/ml B7-H7mIg on H7CR CHO transfectants, anti-mouse Ig secondary antibody, with Control Ig or an H7CR mAb added [A)-(D]

B1: B7-H7-murine IgG2a fusion protein (Fc fusion, not shown: a dimerising Fc or GST)
chain: IFPLAFFIYVPMNEQIVIGRLDEDIILPSSFERGSEVVIHWKYQDSYKVHSYYKGSDHLESQDPRYANRTSLFYNEIQNGNASLFFRRVSLLDEGIYTCYVGTAIQVITNKVVLKVGVFLTPVMKYEKRNTNSFLICSVLSVYPRPIITWKMDNTPISENNMEETGSLDSFSINSPLNITGSNSSYECTIENSLLKQTWTGRWTMKDGLHKMQSEHVSLSCQPVNDYFSPNQDFKVTWSRMKSGTFSVLAYYLSSSQNTIINESRFSWNKELINQSDFSMNLMDLNLSDSGEYLCNISSDEYTLLTIHTVHVEPSQETASHN
In the case of B1, the binding [1] is reported as “binds” and the binding [2] is reported as “binds”.

— patent US20160024210A1 (AstraZeneca / MedImmune, published 2016)
